Values quoted from earlier work in patent US12502379B2, “Ponesimod for avoiding worsening of fatigue-related symptoms in multiple sclerosis patients” (Vanda Pharmaceuticals Inc., priority 2019, dated 2025).
At least one structure is not confirmed: it was looked up by name or label, or the drawing left a doubt.

System: patients with relapsing multiple sclerosis
Settings: teriflunomide 14 mg; TEMSO and TOWER studies; cited from earlier work

C/C(O)=C(\C#N)C(=O)Nc1ccc(C(F)(F)F)cc1 [Teriflunomide]
Risk of 12-week CDP: statistically significant reduction
